Experimental data from PubChem BioAssay AID651804 (National Center for Advancing Translational Sciences (NCATS), 2012).
Among all 1,200 compounds or so, about 20 (2%) were called active. Not shown: some 23% with an inconclusive outcome. Calls follow the shape of the dose curve; as a rule, active = well fitted inhibition curve with a large enough effect; inconclusive = small, poorly fitted or top-dose-only effect; inactive = no such curve, though single readings can be large or run the other way. The list shows a part of the results.

Chains of the proteins cited; added tags and fusions are not shown. Lines headed by an entry give the natural chain unless they say otherwise; changes in a name come on top.
UniProt P11308: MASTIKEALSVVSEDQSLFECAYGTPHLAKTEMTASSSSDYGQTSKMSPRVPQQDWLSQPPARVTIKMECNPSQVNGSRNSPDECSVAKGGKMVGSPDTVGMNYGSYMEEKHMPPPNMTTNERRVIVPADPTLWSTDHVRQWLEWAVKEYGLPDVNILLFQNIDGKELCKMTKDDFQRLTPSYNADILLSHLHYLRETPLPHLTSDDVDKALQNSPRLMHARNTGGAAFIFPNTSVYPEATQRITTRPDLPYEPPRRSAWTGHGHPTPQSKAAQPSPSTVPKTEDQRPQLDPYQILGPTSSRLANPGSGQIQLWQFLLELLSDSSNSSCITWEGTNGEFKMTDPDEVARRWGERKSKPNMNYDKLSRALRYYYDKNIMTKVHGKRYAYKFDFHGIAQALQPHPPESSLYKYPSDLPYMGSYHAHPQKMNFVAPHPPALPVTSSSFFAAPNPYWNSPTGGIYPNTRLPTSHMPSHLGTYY

molecular target: Transcriptional regulator ERG (Homo sapiens) (UniProt P11308); assay: qHTS for Small Molecule Inhibitors of the ERG Ets/DNA interaction: HTRF assay against cherry picks; conditions: His-ERG Ets domain with biotin-DNA; series mostly up to 154 µM; activity change, negative = inhibition: at the top concentration
Excerpt: The Ets family of proteins is a family of ~30 conserved transcription factors defined by the presence of an ~85 amino acid domain referred to as the Ets domain, which mediates sequence-specific DNA binding to a core DNA element GGAA/T.The Ets family member ERG has been linked to several neoplasms. […] More extensive studies of the effects of over-expression of ERG in prostate cells have recently been carried out and have shown that over-expression of ERG results in increased invasion. […] We will carry out a high throughout screen to identify inhibitors of the interaction between ERG and DNA using a fluorescence polarization (FP) assay with a His-tagged ERG Ets domain and fluorescently-labeled DNA probes to develop small molecule inhibitors of this interaction as probes to test this hypothesis and lay the groundwork for the development of targeted therapies against ERG. This is the counterscreen against the cherry picks. NIH Molecular Libraries Probe Production Network [MLPCN] NIH Chemical Genomics Center [NCGC] Grant: NS066464 PI Name: John Bushweller, University of Virgina
2 ul of protein solution (200 nM ERG domain in 300mM KCl, 50mM Tris-HCl, 1mM EDTA, 1mM DTT, pH 7.5); 20 nl Control plate and compound library plate; 2 ul of 200 nM biotin-DNA; incubate for 10 min at RT; 1 ul of anti-His antibody conjugated to the long-life fluorescent cryptate donner […] (5ng/ul) and streptavidin conjugated to the acceptor compound […] (0.2 ng/ul) mix; incubate 10 min and measure FRET (Excitation = 320 nm, Emission = 615, 665 nm).
Potency is read from the fitted curve at half-maximal effect.

Compound | activity change, negative = inhibition | Potency
Cc1ccc(NC(=O)c2cc3cc(OC(F)(F)F)ccc3[nH]2)cc1 | inactive: -19% | 
CCN(Cc1ccccc1)C(=O)COC(=O)CNC(=O)c1ccc(C)s1 | inactive: 8.54% | 
CCOc1ccc(N2C(=O)CC(N3CCN(C(=O)c4ccco4)CC3)C2=O)cc1 (configuration not stated) | inactive: -17.9% | 
COc1ccc(NC(=S)Nc2ccc(N(C)C(C)=O)cc2)cc1 | inactive: -5.52% | 
COc1ccc(C(=O)N2CCc3ccc(NC(=O)c4ccccn4)cc3C2)cc1F | inactive: -6.05% | 
Cc1nc2ccccc2c(=O)n1NC(=O)c1cccnc1Cl | inactive: -8.28% | 
NCCCC(=O)O | inactive: -2.81% | 
CC(C)(O)CN(CCCNC(=S)Nc1ccccc1)C(=S)Nc1ccccc1 | inactive: -4.51% | 
CC(CCC(=O)O)C1CCC2C3CCC4C[C@H](O)CCC4(C)C3CC(=O)C12C (some centres not stated) | inactive: 7.37% | 
O=C(COc1ccccc1)Nc1ccc2c(c1)Cc1cc(NC(=O)COc3ccccc3)ccc1-2 | inactive: -25.6% | 
C=COc1ccc(N2C(=O)c3ccccc3OC2C)cc1 (configuration not stated) | inactive: 5.52% | 
O=C(NCCCc1ccccc1)C(=O)NCC1OCCN1S(=O)(=O)c1ccccc1 (configuration not stated) | inactive: -28.9% | 
CC(Oc1ccccc1)C(=O)Nc1ccc(S(=O)(=O)N2CCN(C)CC2)cc1 (configuration not stated) | inactive: -39.9% | 
CCOc1cc(S(=O)(=O)n2ccc(C)n2)ccc1Br | inactive: -1.7% | 
COc1ccccc1NC(=O)C(=O)N/N=C(\C)CC(=O)Nc1ccccn1 | inactive: -22.8% | 
Cc1cc(N)ccc1-n1c(C)ccc1C | inactive: -13.7% | 
O=C(CSc1ncccc1C(=O)O)NCCC1=CCCCC1 | inactive: -3.45% | 
COc1ccc(CCC(=O)N2CCN(S(=O)(=O)c3ccc(C)cc3)CC2)cc1 | inactive: 3.55% | 
Clc1ccc(-c2csc(N/N=C/c3ccco3)n2)cc1 | inactive: -49.8% | 
COc1cc(OC)cc(C(=O)OCC(=O)N2CCCC2)c1 | inactive: 0.212% | 
COc1ccc(OC)c(NC(=O)c2cccc(NC(=O)c3ccccc3)c2)c1 | inactive: -0.212% | 
Cc1ccc(C=Nc2cccnc2N)cc1 | inactive: -24.9% | 
CC(=O)c1ccc(N(CC(=O)NC2CCS(=O)(=O)C2)S(=O)(=O)c2ccc(C)cc2)cc1 (configuration not stated) | inactive: -0.743% | 
Cc1ccc(C)c(N(CC(=O)NCc2ccco2)C(=O)CNS(=O)(=O)c2ccc(F)cc2)c1 | inactive: -8.91% | 

Compound | activity change, negative = inhibition | Potency
CCn1c(CSc2ncn[nH]2)nc2cc(C(=O)O)ccc21 | inactive: -12.9% | 
CCn1ncc(Br)c1C(=O)Nc1cccc(C(C)=O)c1 | inactive: -2.65% | 
CCCNC(=O)C1=C(C)C(=O)OC12CCC(C)CC2 (configuration not stated) | inactive: 1.59% | 
O=C(NC1CCCC1)C1CCN(C(=O)c2cccc(Cl)c2)CC1 | inactive: 29.1% | 
COc1ccccc1S(=O)(=O)Cc1ccc(C(=O)NCCN(C)C)o1 | inactive: -8.28% | 
CCCCn1c(N)c(N(CC)C(=O)c2ccc(C#N)cc2)c(=O)[nH]c1=O | inactive: -8.75% | 
COCCn1c(C)cc(C(=O)CSc2nnnn2C2CCCC2)c1C | inactive: -29.1% | 
CCCNC(=O)CCC(=O)N1Cc2ccccc2Oc2ncccc21 | inactive: -10.9% | 
COc1ccc(C(=O)n2nc(C)c(Br)c2C)cc1OC | inactive: -11.2% | 
CN(C)Cc1cc2ccccc2c2c1COC2 | inactive: -6.68% | 
Cc1cc(C)c2nc(NC(=O)[C@@H](NC(=O)c3cccc(S(=O)(=O)N4CCOCC4)c3)C(C)C)sc2c1 | inactive: 23.9% | 
Cc1noc(C)c1C(=O)Nc1cccnc1 | inactive: -25.7% | 
CCOc1ccc(NC(=O)CN(C)C(=O)c2ccccc2CCc2ccccc2)cc1OCC | inactive: 3.66% | 
Oc1ccccc1CN1CCCC(N2CCN(c3cccc(C(F)(F)F)c3)CC2)C1 (configuration not stated) | inactive: -11.6% | 
CC(=O)c1cccc(NC(=O)C(C)OC(=O)c2ccc3ncsc3c2)c1 (configuration not stated) | inactive: 5.57% | 
CCC(c1nnnn1Cc1ccc(F)cc1)N1CCN(C)CC1 (configuration not stated) | inactive: -23.8% | 
CC(C)C(=O)NC(=S)Nc1ccc(S(=O)(=O)Nc2ccccc2)cc1 | inactive: -0.159% | 
COc1ccc([C@@H](NC(=O)OC(C)(C)C)C(=O)OC(C)(C)C)cc1 | inactive: -22.7% | 
COC(=O)c1ccccc1NS(=O)(=O)c1ccc2c(c1)CCCN2C(C)=O | inactive: -22% | 
CC(CN1CCOCC1)(NS(=O)(=O)c1ccccc1)c1ccccc1 (configuration not stated) | inactive: -29.4% | 
CSc1ccc(S(=O)(=O)N2CCC(C(=O)NCc3ccncc3)CC2)cc1 | inactive: -1.01% | 
C[N+](C)(C)CCCCCC[N+](C)(C)C | inactive: -26.6% | 
Cc1cccc([N+](=O)[O-])c1C(=O)O | inactive: -10.6% | 
COC(=O)Cn1c(=NC(=O)C2COc3ccccc3O2)sc2cc(S(N)(=O)=O)ccc21 (configuration not stated) | inactive: -7.75% | 

Filtered by structure, the compounds so far with an aryl methoxy group.
Compound | activity change, negative = inhibition | Potency
COc1ccc(NC(=S)Nc2ccc(N(C)C(C)=O)cc2)cc1 | inactive: -5.52% | 
COc1ccc(C(=O)N2CCc3ccc(NC(=O)c4ccccn4)cc3C2)cc1F | inactive: -6.05% | 
COc1ccccc1NC(=O)C(=O)N/N=C(\C)CC(=O)Nc1ccccn1 | inactive: -22.8% | 
COc1ccc(CCC(=O)N2CCN(S(=O)(=O)c3ccc(C)cc3)CC2)cc1 | inactive: 3.55% | 
COc1cc(OC)cc(C(=O)OCC(=O)N2CCCC2)c1 | inactive: 0.212% | 
COc1ccc(OC)c(NC(=O)c2cccc(NC(=O)c3ccccc3)c2)c1 | inactive: -0.212% | 
COc1ccccc1S(=O)(=O)Cc1ccc(C(=O)NCCN(C)C)o1 | inactive: -8.28% | 
COc1ccc(C(=O)n2nc(C)c(Br)c2C)cc1OC | inactive: -11.2% | 
COc1ccc([C@@H](NC(=O)OC(C)(C)C)C(=O)OC(C)(C)C)cc1 | inactive: -22.7% | 

Molecules listed so far containing a CF3 group (2):
Compound | activity change, negative = inhibition | Potency
Cc1ccc(NC(=O)c2cc3cc(OC(F)(F)F)ccc3[nH]2)cc1 | inactive: -19% | 
Oc1ccccc1CN1CCCC(N2CCN(c3cccc(C(F)(F)F)c3)CC2)C1 (configuration not stated) | inactive: -11.6% | 

(cont.)

Compound | activity change, negative = inhibition | Potency
O=C(NC1CCCCC1)C(c1ccc(O)cc1)N(C(=O)c1cnccn1)c1cccc(F)c1 (configuration not stated) | inactive: -14.3% | 
Cn1c(CNC(=O)c2cccs2)n[nH]c1=S | inactive: -24.1% | 
Cc1csc(=O)n1CCC(=O)OCC(=O)Nc1ncc(Cl)cc1Cl | inactive: -22.8% | 
Cc1cc(C(C)(C)C)c(O)c(C)c1CC1=NCCN1 | inactive: -22.8% | 
CCCN1C[C@H](CSC)C[C@@H]2c3cccc4[nH]cc(c34)C[C@H]21 |  | active: 14.1 µM
O=c1[nH]c2cc(F)ccc2c2ccc(F)cc12 | inactive: -28.4% | 
COC(=O)c1c(C(=O)OC)c(-c2ccc(OC)cc2)n2c1CS(=O)C2 (configuration not stated) | inactive: -14.5% | 
CCCCCCCN=CC1=C(O)CC(c2ccccc2)CC1=O (configuration not stated) | inactive: -23.6% | 
CC(C)COC(=O)/C(C#N)=C/c1c[nH]c2ccccc12 | inactive: -23.7% | 
Nc1cccc2nc3ccccc3cc12 |  | active: 50.1 µM
O=C(NCC1CCCO1)C1CC(=O)N(c2ccc(Cl)cc2)C1 (configuration not stated) | inactive: -22.3% | 
CCC(C)NCCCOc1ccc(C)cc1OC (configuration not stated) | inactive: -6.42% | 
Cc1ccc(N(Cc2cc(=O)[nH]c3ccccc23)C(=O)CCl)c(C)c1 | inactive: -21% | 
Cc1nn(C2CCS(=O)(=O)C2)c(Cl)c1/C=C/C(=O)OCC(=O)c1c[nH]c2ccccc12 (configuration not stated) | inactive: -21.3% | 
Nc1ccccc1-n1cccc1 | inactive: -10.2% | 
Nn1cnnc1N/N=C/c1cccc(Cl)c1Cl | inactive: -27.5% | 
COc1cc(OC)cc(C(=O)NCC(=O)OCc2csc(-c3ccccc3)n2)c1 | inactive: 34.1% | 
CCOc1ccc2nc(SCC(=O)c3ccc(C)s3)sc2c1 | inactive: -15.2% | 
Cc1sc2nc(CSC(C)C(=O)Nc3ccc(C(N)=O)cc3)[nH]c(=O)c2c1C (configuration not stated) | inactive: -40.4% | 
Oc1ccc(NCc2ccccc2OCc2ccc(Cl)cc2)cc1 | inactive: -27.3% | 
COc1ccc(NC(=O)CSCC(=O)N(C)Cc2cccc(OC)c2OC)cc1 | inactive: -28.1% | 
CC(C)[C@H](NS(=O)(=O)c1ccccc1F)C(=O)NC1CCCCC1 | inactive: -23.2% | 
CCOC(=O)C1(CCc2ccccc2)CCN(C(=O)[C@@H]2C[C@@H](C)NC(=S)N2)CC1 | inactive: -27.4% | 
S=C(NCc1ccccc1)Nc1cccc(Cl)c1 | inactive: -18.9% | 
